Experimental data reported in publication PMC5871717, “Transposase-DNA Complex Structures Reveal Mechanisms for Conjugative Transposition of Antibiotic Resistance” (Cell, 2018).
Results are given in words; binding and its absence hold for the method and conditions named.

Experiments:
[1] = target: Int^82N (384C), C-terminal truncation of Int^82N (Enterococcus faecalis) (UniProt Q7BP35); experiment: SEC; analytical size exclusion chromatography on Superdex 200 10/300, proteins without DNA; both purified
[2] = target: Int^82N (381C), C-terminal truncation of Int^82N (Enterococcus faecalis) (UniProt Q7BP35); experiment: as above
[3] = target: Int^82N (390C), C-terminal truncation of Int^82N (Enterococcus faecalis) (UniProt Q7BP35); experiment: SAXS; 50 mM HEPES pH 7.5, 750 mM NaCl, 5 mM DTT, 10% glycerol; Int^82N at 1.3, 2.63, 4.8 mg/mL, 390C at 0.5, 3.2, 4.18 mg/mL; Mw by calibration with bovine serum albumin; without DNA; both purified
[4] = target: Int^82N (390C), C-terminal truncation of Int^82N (Enterococcus faecalis) (UniProt Q7BP35); experiment: SEC; analytical size exclusion chromatography on Superdex 200 10/300, proteins without DNA; both purified

Int^82N (384C), C-terminal truncation of Int^82N (from UniProt Q7BP35 82-384) (domain or fragment)
binding [1]: no binding

Int^82N (381C), C-terminal truncation of Int^82N (from UniProt Q7BP35 82-381) (domain or fragment)
binding [2]: no binding

Int^82N (390C), C-terminal truncation of Int^82N (from UniProt Q7BP35 82-390) (domain or fragment)
binding [3]: no binding (tested: 4.18 mg/mL) | binding [4]: no binding
